Data published in publication PMC5996148.
“And” between values parts separate entries of the source, which are not always exact repeats. Identical values can stand only once. This is one part of the list. For some assays here: The source does not settle which construct or isoform was used.

Key:
Assay in all cases: protein microarray (ProtoArray v5.0), streptavidin-Alexa Fluor 647
Details in all cases: 3'-biotin; 20 mM Tris (pH 7.5), 5 mM MgCl2, 100 mM KCl, 0.1% Tween-20, A/T-rich and random oligonucleotide blockers; temperature not stated; high values mean tight binding
[1] = system: Annexin-2 receptor (human)
[2] = system: Apolipoprotein A-IV (human)
[3] = system: Apolipoprotein L2 (human)
Aprataxin (human) = system: Aprataxin (human)
Arfaptin-1 (human) = system: Arfaptin-1 (human)
[4] = system: Armadillo repeat-containing protein 6 (human)
[5] = system: Aromatic-L-amino-acid decarboxylase (human)
Ataxin-3 (human) = system: Ataxin-3 (human)
[6] = system: Autophagy-related protein 3 (human)
BAG2 (human) = system: BAG2 (human)
BATF2 = target: T1, BATF2 (UniProt Q8N1L9)
T1 sequence: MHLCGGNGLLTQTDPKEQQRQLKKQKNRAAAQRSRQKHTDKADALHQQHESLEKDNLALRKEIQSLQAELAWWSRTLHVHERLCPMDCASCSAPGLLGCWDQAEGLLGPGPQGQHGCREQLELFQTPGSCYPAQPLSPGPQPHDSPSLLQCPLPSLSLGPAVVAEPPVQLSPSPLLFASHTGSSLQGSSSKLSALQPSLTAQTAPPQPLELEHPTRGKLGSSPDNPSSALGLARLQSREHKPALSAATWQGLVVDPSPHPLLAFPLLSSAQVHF

BBS7 (human) = system: BBS7 (human)
BCKDK = BCKDK (UniProt O14874)
BCL10 = target: T2, BCL10 (UniProt O95999)
T2 sequence: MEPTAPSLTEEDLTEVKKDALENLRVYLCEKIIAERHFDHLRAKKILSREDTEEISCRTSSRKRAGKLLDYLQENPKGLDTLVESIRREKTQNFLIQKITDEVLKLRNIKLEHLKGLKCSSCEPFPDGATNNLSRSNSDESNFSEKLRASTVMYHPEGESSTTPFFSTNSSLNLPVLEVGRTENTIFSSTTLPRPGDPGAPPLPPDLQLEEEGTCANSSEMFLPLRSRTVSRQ

BCL2A1 (human) = system: BCL2A1 (human)
BCL2L11 (human) = system: BCL2L11 (human)
BCL2L13 (human) = system: BCL2L13 (human)
BHMT (human) = system: BHMT (human)
BHMT2 (human) = system: BHMT2 (human)
BID (human) = system: BID (human)

Question: What does the source list for “GGTGACAGGGGTATGGGGAGGGG [G4-2 biotinylated (Ct1)]”?
Answer: binding signal [1]: -0.391 z-score and -0.36 z-score; binding signal [2]: -0.394 z-score; binding signal [3]: -0.388 z-score; binding signal (Aprataxin (human)): 3.37 z-score; binding signal (Arfaptin-1 (human)): -0.4 z-score; binding signal [4]: -0.386 z-score; binding signal [5]: -0.391 z-score; binding signal (Ataxin-3 (human)): -0.394 z-score; binding signal [6]: -0.4 z-score; binding signal (BAG2 (human)): -0.371 z-score; binding signal (BATF2): -0.388 z-score; binding signal (BBS7 (human)): -0.383 z-score; binding signal (BCKDK): -0.369 z-score; binding signal (BCL10): -0.362 z-score; binding signal (BCL2A1 (human)): -0.391 z-score; binding signal (BCL2L11 (human)): -0.406 z-score; binding signal (BCL2L13 (human)): -0.398 z-score; binding signal (BHMT (human)): -0.374 z-score; binding signal (BHMT2 (human)): -0.376 z-score; binding signal (BID (human)): -0.386 z-score and -0.391 z-score
